Source: US6410721
The exact form of at least one protein or probe is not confirmed. For part of these data: At least one result comes from cells or an extract, where the contact may be indirect. For part of these data: A negative result means that nothing was seen under these conditions. For part of these data: The comparison behind a weaker result is the experiment's own reference, which may not be listed here.

Legend:
[1] = tested on: RF-X transcription factor (nuclear extract of Raji cells) (Homo sapiens); assay: EMSA; conditions: protein in an extract
[2] = tested on: RF-X (from rabbit reticulocyte lysate); assay: EMSA; conditions: preincubated decoy at 100 and 200 fold excess; labelled X-box probe unable to compete decoy off RF-X; protein translated in vitro; protein details: sample from B. M. Peterlin, UCSF; folded or branched DNA
[3] = tested on: RF-X transcription factor (nuclear extract of Raji cells) (Homo sapiens); assay: competition with a labelled probe; conditions: competed with hot AX probe, in contrast to direct binding assay; protein in an extract

## GACTGGGTTTTCCCAGTCCATACGAAGTTTTCTTCGTATG [unligated RF-X-2 decoy]
[1]; no measurable binding in gel shift, decoy active in CAT assay, folded or branched DNA, variant of RF-X-2 decoy (ligated)
  binding result: no binding

## GCTAGGGGTTTTTCCCCTAGCAACAGATGTTTTTCATCTGTT [42-mer polynucleotide decoy (Example 1)]
[2]
  binding result: binds

## GACTGGGTTTTCCCAGTCCATACGAAGTTTTCTTCGTATG [RF-X-2 decoy (ligated)]
[1]; no measurable binding in gel shift, decoy active in CAT assay, folded or branched DNA
  binding result: no binding

## TATACGGGTTTTCCCGTATACCACTCTGTTTTCAGAGTGG [unligated M6 decoy]
[1]; no measurable binding, folded or branched DNA, variant of M6 decoy (ligated)
  binding result: no binding

## TGAGTTGGTTTTCCAACTCACTTTCCGCTTTTGCGGAAAG [unligated kappaB mutant]
[1]; no measurable binding, kappaB mutant also did not compete with AX (p198), folded or branched DNA
  binding result: no binding

## TATACGGGTTTTCCCGTATACCACTCTGTTTTCAGAGTGG [M6 decoy (ligated)]
[1]; no measurable binding, folded or branched DNA, variant of RF-X decoy (ligated, 4T loops)
  binding result: no binding

## CTAGGGGTTTTTCCCCTAGCAACAGATGTTTTTCATCTGTTG [RF-X decoy T5 (42* mer, ligated)]
[1]; binds to a lesser degree than RF-X decoy, also competes with AX (p198), folded or branched DNA, variant of RF-X decoy (ligated, 4T loops)
  binding result: binds more weakly

## CCCCTAGCAACAGATG (double strand) [16 bp X-box]
[1]; no measurable direct binding
  binding result: no binding
[3]
  binding result: binds
